System: rabbit gastric parietal cells
Assay: [14C]-aminopyrine (acid) accumulation in isolated gastric parietal cells
Type: cell-based
Conditions: up to concentrations of 10^−4 M
Experimental: Strategy. Gastric parietal cells were isolated from New Zealand White Rabbits by pronase/collagenase digestion of fundic mucosa followed by enrichment of cells on discontinuous Nycodenz gradients in a manner known per se. Aminopyrine accumulation into parietal cells was assessed in 96 well filter plates with Durapore membranes. […] All determinations were performed in quadruplicate. Basal aminopyrine accumulation was determined as aminopyrine accumulation into […] (a reflection of non-specific isotope trapping).

COc1ccc2cc([C@H](C)C(=O)O)ccc2c1 [naproxen]
effect on acid accumulation by isolated rabbit parietal cells: no effect

Reference: patent US20060040945A1, “Annellated pyrrole compounds as proton pump inhibitors for treating ulcer” (MERCKLE GMBH, priority 2002, published 2006)
